Test results taken from article PMC7504466, “In-Vitro and In-Silico Evaluations of Heterocyclic-Containing Diarylpentanoids as Bcl-2 Inhibitors Against LoVo Colorectal Cancer Cells” (Molecules, 2020).

system: human CRC cell lines (T84, SW620, LoVo, HT29, NCI-H508, RKO, LS411N); test: MTT cytotoxicity assay, panel of KRAS- and BRAF-mutated CRC cell lines; format: cell-based; settings: NHDF versus CRC cell lines, 72 h
Protocol: The in-vitro cytotoxic activity of the synthesized compounds on seven human CRC cell lines including KRAS (T84, SW620, LoVo) and BRAF (HT29, NCI-H508, RKO and LS411N) mutated cells were determined by MTT assay as previously described. The IC50 values obtained are summarized in Table 2 in which 5-FU and normal human dermal fibroblasts (NHDF) were used as controls. Meanwhile, a heatmap (Figure 3) was also generated using GraphPad Prism v7.0 (GraphPad Software, La Jolla, CA, USA) to visualize the cytotoxic trends of synthesized compounds graphically.
A panel of KRAS (T84, SW620 and LoVo) and BRAF (HT29, NCI-H508, RKO and LS411N) mutated human CRC cell lines were grown in Dulbecco’s modified Eagle’s medium (DMEM) containing 10% fetal bovine serum (FBS) and 1% penicillin/streptomycin at 37 °C under 5% CO2 while NHDF cells were cultured in DMEM with 5% FBS under the same condition. The culture medium was replenished every two days until the cells reached 80–90% confluency for further usage. All cell lines (T84, ATCC®CCL-248™; SW620, ATCC®CCL-227™; LoVo, ATCC®CCL-229™; HT-29, ATCC®HTB-38; NCI-H508, ATCC®CCL-253™; RKO, ATCC®CRL-2577; LS411N, ATCC®CRL-2159; NHDF, ATCC® PCS-201-010™) were purchased from American Type culture Collections (ATCC, Manassas, VA, USA).
LoVo cells (1.5–5 × 10^3 cells/well) were seeded into a 96 well plate and incubated at 37 °C and 5% CO2 atmosphere for 24 h. On the following day, the cell media were replaced with 100 µL of test compounds at various concentration. The final concentration of DMSO in the well is 0.1%. After 72 h of incubation, culture medium was removed and 100 µL of MTT (thiazoyl blue tertrazolium bromide) solution (0.5 mg/mL in culture media) was added. The resultant plates were then further incubated at 37 °C for 4 h. Upon completion, the MTT solution was removed and the formazan salts formed were dissolved in 100 µL of DMSO. The absorbance was recorded with a microplate reader at 570 nm. The IC50 values of tested compounds were calculated from three independent experiments.

Compound	Chemo-Therapeutic Index
O=C1C(=Cc2ccc(F)c(F)c2)CCCC1=Cc1ccc(F)c(F)c1 [Compound 2c, 2,6-Bis(3,4-difluorobenzylidene)cyclohexanone]	2.3–5.0
COc1ccccc1C=C1CSCC(=Cc2ccccc2OC)C1=O [Compound 2d, 3,5-Bis(2-methoxybenzylidene)tetrahydro-4H-thiopyran-4-one]	1.4–1.8
O=C1C(=Cc2ccc(F)c(F)c2)CSCC1=Cc1ccc(F)c(F)c1 [Compound 2f, 3,5-Bis(3,4-difluorobenzylidene)tetrahydro-4H-thiopyran-4-one]	0.3–0.8
